The source of these data is paper PMC5789026.

By UniProt entry, the sequences of proteins in these tests, tags left out. Where a name states a change or a piece, a line headed by the entry shows the natural chain unless it says otherwise.
UniProt P38398: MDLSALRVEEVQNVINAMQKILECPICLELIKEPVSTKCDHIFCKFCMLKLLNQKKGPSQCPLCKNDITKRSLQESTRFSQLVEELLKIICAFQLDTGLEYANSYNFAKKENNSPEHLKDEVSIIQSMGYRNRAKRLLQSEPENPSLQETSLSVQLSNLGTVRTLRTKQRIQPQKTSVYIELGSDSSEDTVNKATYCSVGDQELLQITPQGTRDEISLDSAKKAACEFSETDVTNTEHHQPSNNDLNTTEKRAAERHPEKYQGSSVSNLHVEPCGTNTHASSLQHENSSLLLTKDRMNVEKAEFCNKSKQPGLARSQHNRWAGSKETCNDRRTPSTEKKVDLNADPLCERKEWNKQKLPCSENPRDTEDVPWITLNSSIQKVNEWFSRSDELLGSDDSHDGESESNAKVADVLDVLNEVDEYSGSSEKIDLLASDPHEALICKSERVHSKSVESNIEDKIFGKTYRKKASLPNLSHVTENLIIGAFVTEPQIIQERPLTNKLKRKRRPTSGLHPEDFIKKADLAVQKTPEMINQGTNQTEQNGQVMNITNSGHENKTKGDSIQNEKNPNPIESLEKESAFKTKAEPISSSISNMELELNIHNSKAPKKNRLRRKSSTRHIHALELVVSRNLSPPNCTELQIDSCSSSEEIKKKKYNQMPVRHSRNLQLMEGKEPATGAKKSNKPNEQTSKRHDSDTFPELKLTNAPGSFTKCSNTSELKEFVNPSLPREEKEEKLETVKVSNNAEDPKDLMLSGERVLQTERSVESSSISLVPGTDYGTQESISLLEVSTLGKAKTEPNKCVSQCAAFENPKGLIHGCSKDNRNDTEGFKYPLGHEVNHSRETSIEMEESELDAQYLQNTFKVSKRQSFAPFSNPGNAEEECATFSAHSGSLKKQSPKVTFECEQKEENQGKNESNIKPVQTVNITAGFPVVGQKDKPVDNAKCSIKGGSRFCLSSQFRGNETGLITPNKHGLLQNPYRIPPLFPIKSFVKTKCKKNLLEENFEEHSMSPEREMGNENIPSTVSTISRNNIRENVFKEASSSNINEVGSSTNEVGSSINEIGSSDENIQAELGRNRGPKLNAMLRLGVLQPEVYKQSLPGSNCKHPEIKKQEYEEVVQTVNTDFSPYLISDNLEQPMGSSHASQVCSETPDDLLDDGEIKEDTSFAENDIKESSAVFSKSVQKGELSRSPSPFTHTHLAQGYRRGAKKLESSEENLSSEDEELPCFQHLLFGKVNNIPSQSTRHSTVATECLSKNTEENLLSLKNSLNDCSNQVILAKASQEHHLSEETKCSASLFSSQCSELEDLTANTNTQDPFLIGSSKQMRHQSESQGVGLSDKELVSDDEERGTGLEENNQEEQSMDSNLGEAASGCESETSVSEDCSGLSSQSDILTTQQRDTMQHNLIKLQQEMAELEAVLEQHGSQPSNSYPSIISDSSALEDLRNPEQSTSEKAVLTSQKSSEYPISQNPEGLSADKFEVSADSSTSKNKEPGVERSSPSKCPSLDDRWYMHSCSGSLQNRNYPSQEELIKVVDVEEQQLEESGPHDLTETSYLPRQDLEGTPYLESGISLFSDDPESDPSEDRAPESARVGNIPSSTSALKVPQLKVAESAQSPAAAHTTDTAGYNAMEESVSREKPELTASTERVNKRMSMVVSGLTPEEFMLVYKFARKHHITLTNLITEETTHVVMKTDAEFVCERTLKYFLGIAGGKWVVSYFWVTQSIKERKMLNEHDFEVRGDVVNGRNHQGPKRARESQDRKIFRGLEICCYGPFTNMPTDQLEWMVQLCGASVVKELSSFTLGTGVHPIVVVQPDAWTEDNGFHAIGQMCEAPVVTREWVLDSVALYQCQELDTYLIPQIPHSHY

These are yes or no findings as the source states them, for the method shown. For some of these results: Binding seen in cells or lysates may run through a third protein. Some results given as binding are weak or reduced against the parent protein; the word gives no strength. For some of these results: Sequences can lack the tags named with a protein.

Assay [1] addresses T1, cleavage stimulation factor 50 (CstF-50) (human (endogenous in HeLa)) (UniProt Q05048).
T1 sequence: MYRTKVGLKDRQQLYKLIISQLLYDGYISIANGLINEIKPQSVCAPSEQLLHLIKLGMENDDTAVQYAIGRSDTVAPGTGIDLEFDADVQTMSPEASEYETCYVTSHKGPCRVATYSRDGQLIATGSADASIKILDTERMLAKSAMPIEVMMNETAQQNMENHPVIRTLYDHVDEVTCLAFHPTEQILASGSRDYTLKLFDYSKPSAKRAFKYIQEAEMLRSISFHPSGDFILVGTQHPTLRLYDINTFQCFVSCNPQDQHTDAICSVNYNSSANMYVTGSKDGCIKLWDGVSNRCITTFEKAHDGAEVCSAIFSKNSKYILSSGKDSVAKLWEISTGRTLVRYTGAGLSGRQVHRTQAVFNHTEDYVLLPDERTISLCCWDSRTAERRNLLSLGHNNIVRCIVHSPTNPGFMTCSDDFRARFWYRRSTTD
In words: co-IP; endogenous IP with anti-CstF-50 from HeLa nuclear extracts (100 ug total protein), cells untreated or UV (40 J m^-2, 2 h recovery); samples treated with RNase A; immunoblot. (In general: In western blotting, separated proteins are transferred to a membrane and probed.)

The next assay addresses T2, GST-CstF-50 (UniProt Q05048).
T2 sequence: T1 sequence
In words: pull-down; GST-CstF-50 on glutathione beads incubated with 1 ug His-p97, and His-p97 on nickel beads incubated with GST-CstF-50; recombinant proteins treated with RNase A; Western blot; both purified.

Assay [2] has as its target ubiquitin escort factor p97 (human (endogenous in HeLa)) (UniProt P55072). In words: co-IP; endogenous IP with anti-p97 from HeLa nuclear extracts (100 ug total protein), cells untreated or UV (40 J m^-2, 2 h recovery); samples treated with RNase A; immunoblot.

Turning to “BRCA1/BARD1 heterodimer (endogenous) (from UniProt P38398 1-1863; Q99728 1-777) (complex)”, the binding entry in assay [1] is reported as “binds”.

On to His-p97 (from UniProt P55072 1-806), for which the binding entry with GST-CstF-50 is reported as “binds”.

For the substance “cleavage stimulation factor 50 (CstF-50) (from UniProt Q05048 1-431)”, in assay [2], the binding entry is listed as “binds”.

As for “ubiquitin escort factor p97 (from UniProt P55072 1-806)”, in assay [1], the binding result is reported as “binds”.
